This is one part of the list.

The chains behind the UniProt entries cited, without tags or fusion partners.
UniProt Q0JBA9, entry or part of it: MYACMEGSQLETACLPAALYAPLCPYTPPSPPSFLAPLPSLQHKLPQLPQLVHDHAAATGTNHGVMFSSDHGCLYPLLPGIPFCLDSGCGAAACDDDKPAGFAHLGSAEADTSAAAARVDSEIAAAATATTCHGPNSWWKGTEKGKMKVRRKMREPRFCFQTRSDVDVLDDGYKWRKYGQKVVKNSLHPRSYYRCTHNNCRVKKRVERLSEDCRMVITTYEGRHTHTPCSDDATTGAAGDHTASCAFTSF

The assay addresses OsWRKY34 (Oryza sativa, UniProt Q0JBA9 1-250). Description: protein-binding microarray (RPBM); PBS, 2% BSA, 51.3 ng/ul salmon testes DNA, 50 uM zinc acetate, 200 nM TF, 25 C, 1 h; high values mean tight binding. The following applies: protein: recombinant; tags: N-terminal polyhistidine and DsRed monomer fusion (pET32a); label: CyDye5-dUTP incorporated in the synthesized complementary strand; 3' TTTTT single-stranded linker to array surface; dsDNA, one strand shown. A digest of the protocol:
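An Axon 4000B scanner gave the binding signal as per-feature fluorescence intensity in arbitrary units. This followed washing of a custom Agilent array that had been incubated for 1 h at 25 °C with 200 nM protein in PBS, 2% BSA, salmon testes DNA and 50 µM zinc acetate. The proteins were transcription factors fused at the N-terminus to polyhistidine and DsRed, expressed in E. coli BL21-CodonPlus and purified on Ni–NTA.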
As to “ACCCCAACGCAACCACTCTTCTCTACTACAATCGTTACTCCGGAGTCACCTAGTGCAG”, the binding signal is 9310 fluorescence intensity (a.u.).
To “AAATCGGGGAAGCTTCTGGACCTAGCTCTTCTCGCTGTTTCGGAGTCACCTAGTGCAG” belongs 9640 fluorescence intensity (a.u.); to “CTGCGTTACTTCGACATTGCCCGACGTGTTGACTGTGTTGCGGAGTCACCTAGTGCAG”, 9230 fluorescence intensity (a.u.).
Then “GGCGTGCATTGCAACTTGGATTCTGATTAACTGTCTGCTACGGAGTCACCTAGTGCAG”, with 9010 fluorescence intensity (a.u.).
To “ATCAGCACCACACCACTGCTCAAACTACTCCACTTGCTCCCGGAGTCACCTAGTGCAG” belongs 10100 fluorescence intensity (a.u.); to “ACGCCCAACCCACTCGATCGTCCGGTGCCCCACCGCCGGCCGGAGTCACCTAGTGCAG”, 9030 fluorescence intensity (a.u.).
Take “ACTTATCTCCTCGCTAATTCTCTTGCCATATCAATTTTTTCGGAGTCACCTAGTGCAG”: the binding signal is 10500 fluorescence intensity (a.u.).
Take “CAAAGGCGTCCCGATTTTCTCTCTCTGGGTTCCGTACTCTCGGAGTCACCTAGTGCAG”: the binding signal is 10100 fluorescence intensity (a.u.).
To “CACTTGCAATATCTCTATATTCTCTGTTCATATGCATGCACGGAGTCACCTAGTGCAG” belongs 8140 fluorescence intensity (a.u.).
Then “ATATTTGATGCCGTTGACTTTTTAAAATATATTTGATCATCGGAGTCACCTAGTGCAG”, with 16400 fluorescence intensity (a.u.); and “CGTCACATCGAACTTTTCTATACACCAACTTCTAACTTTTCGGAGTCACCTAGTGCAG”, with 8890 fluorescence intensity (a.u.).
For “GCTTGGATTCCCACGTTTTCCACCCACCAAGTCAGCCATCCGGAGTCACCTAGTGCAG”, the binding signal is 11700 fluorescence intensity (a.u.).
To “AACTTGACACGGGTATTTGTATTTATGGCTAATTTTTTTTCGGAGTCACCTAGTGCAG” belongs 9690 fluorescence intensity (a.u.); to “GATGTCATCTGCGCCGGTTTTGATAGTTGAGGGACCCATTCGGAGTCACCTAGTGCAG”, 10400 fluorescence intensity (a.u.); to “GCACAGCTCTCTCCTCCGGCCGCCACCTTCTCTCCGGTGACGGAGTCACCTAGTGCAG”, 8690 fluorescence intensity (a.u.).
Then “AGCCCAAGTCTTACCCACCACAAGCCCAACACACCACACTCGGAGTCACCTAGTGCAG”, with 9260 fluorescence intensity (a.u.); and “CCACAGTTAATTCCACACATACATGCACGCGTCTATATATCGGAGTCACCTAGTGCAG”, with 11200 fluorescence intensity (a.u.); and “GATGCACCACTGCTGCGTCGCACGTTCCACCCCATTCCACCGGAGTCACCTAGTGCAG”, with 8330 fluorescence intensity (a.u.).
In the case of “ATATATATATATATATATATATATATATATATGAGCGGGACGGAGTCACCTAGTGCAG”, the binding signal is 8820 fluorescence intensity (a.u.).
Then “CTGCTTGCGCTCGCATCTCACCGCGTCTCATTCCATCTACCGGAGTCACCTAGTGCAG”, with 12300 fluorescence intensity (a.u.); and “CCTGAGCTTTCGATCTCTTCGGAGTGGTTTCTTGTTCTTTCGGAGTCACCTAGTGCAG”, with 10500 fluorescence intensity (a.u.).
Then “AATCGATTCGAAATTTCAATGAAAATTTTCCCTCCACACCCGGAGTCACCTAGTGCAG”, with 8330 fluorescence intensity (a.u.); and “GCGTGGTGCAGTTTGCAGGGGATCCTCATTCGACTGTATCCGGAGTCACCTAGTGCAG”, with 8100 fluorescence intensity (a.u.); and “AACACTTACAACATCTCTCTCTCTCTCTCTCTCTCTCTCCCGGAGTCACCTAGTGCAG”, with 8670 fluorescence intensity (a.u.).
For the sequence “GTGCTTTCTTTCTTTAATTTCCTGTGCAGAAATATACAGGCGGAGTCACCTAGTGCAG”, the binding signal is 8690 fluorescence intensity (a.u.).
To “GATCATTTACCACACAGCTCTTCACCTTTCCTGTGCCACCCGGAGTCACCTAGTGCAG” belongs 11000 fluorescence intensity (a.u.).
To “GAACTATGTTTTTCTTTTTACAGTCGAGTTTTGAATATTTCGGAGTCACCTAGTGCAG” belongs 8930 fluorescence intensity (a.u.); to “CTCCACCATTTATTTACTTGTTCATTTGCTAATTAAGGACCGGAGTCACCTAGTGCAG”, 9190 fluorescence intensity (a.u.); to “CCACTGACCTGAATTCACCGTTTTACCCCTCCCCGTTCCACGGAGTCACCTAGTGCAG”, 10500 fluorescence intensity (a.u.).
Then “CGTTTGTCCTTCGATAACAGTGTGTCATGGCCCATATATACGGAGTCACCTAGTGCAG”, with 8190 fluorescence intensity (a.u.); and “GATTTAGGCTGCTCCACTACTTCACTCTAGATTTAACTTTCGGAGTCACCTAGTGCAG”, with 13100 fluorescence intensity (a.u.); and “GCTGACTACGAATCTGTAGCTTGTTGTTTTTCTCTTTTCTCGGAGTCACCTAGTGCAG”, with 11100 fluorescence intensity (a.u.).
Turning to “GGAGCACTCCGTCTCCCACCCGTTGACCCGAGCGAGCTCCCGGAGTCACCTAGTGCAG”, the binding signal was 10000 fluorescence intensity (a.u.).
To “GGTCCACCCATGGCCACCCGTTGCTATGGCGCTCATGAGCCGGAGTCACCTAGTGCAG” belongs 8830 fluorescence intensity (a.u.); to “TTCAAATTTTTTTCGTTCATTTTATGGTCTCTTTTTGCGACGGAGTCACCTAGTGCAG”, 10100 fluorescence intensity (a.u.); to “AGTTCTATATAAGTTGCTGAGCCCACATGGAGATATTACACGGAGTCACCTAGTGCAG”, 8090 fluorescence intensity (a.u.).
Then “CTCACCTACCGCATCTGTGTTCCTTTTGCTTTCTTTCTTTCGGAGTCACCTAGTGCAG”, with 18100 fluorescence intensity (a.u.); and “GAGGAAGCAGTTTACTCTCCTTTCTATGTGTATTTGATTACGGAGTCACCTAGTGCAG”, with 9150 fluorescence intensity (a.u.); and “TCCCTCTAGCATAGTGCTGATCTTGCCCATTCAGTGTTTCCGGAGTCACCTAGTGCAG”, with 10100 fluorescence intensity (a.u.).
As to “AAAATCCGCTCGCTCGCAGGTCTCCGCCTCACACCAACACCGGAGTCACCTAGTGCAG”, the binding signal was 8740 fluorescence intensity (a.u.).
Regarding “CGTGCATCCGCTGCGCTGTGCTGCCATTTCTCTTCAGCTTCGGAGTCACCTAGTGCAG”, the binding signal is 10600 fluorescence intensity (a.u.).
“TCATACACATATTTTCCTTTTCCGTATGTATAGTAAATTACGGAGTCACCTAGTGCAG”: the binding signal was 8800 fluorescence intensity (a.u.).

The values are drawn from article PMC7819943, “Rice protein-binding microarrays: a tool to detect cis-acting elements near promoter regions in rice”.
